Results reported in PubChem BioAssay AID248 (DTP/NCI, 2004).
The list does not hold the whole screen: it gathers tests that were run many times, whatever their T/C, doses with no T/C, and many T/C values between a quarter and a half above the control. Other doses and runs of a compound stand elsewhere. T/C is the treated group as % of the vehicle group. Some entries give survivors of the animals treated and no T/C: the source files T/C as zero there, which appears to mark a toxic dose or a test without result, not a measured value. Some doses without a T/C left all or most animals alive at the check, yet need not have been tolerated: survival well below the control is almost never listed, so the zero probably covers shortened survival too. Survivors were counted at the toxicity check, usually on the fifth day, unless a day is given; later deaths do not show. Schedule codes are those of the source, read here as Q, the interval in days (D) or hours (H), X, the number of doses. Some entries were tested several times; the values are given in rising order. Some schedule codes hold Z or #, which are not explained here. Where survival is the endpoint, this PubChem deposit counts one and a half times the control or more as active, and values a quarter to a half above the control carry no call in these data; other NCI protocols may use other cut-offs. Some T/C values are followed by the survivors on the day toxicity was checked, most often the fifth; without a count, all were alive then.

System: L1210 leukemia ip in BDF1 mice, survival T/C
Test: NCI In Vivo Anticancer Drug Screen. Data for tumor model L1210 Leukemia (intraperitoneal) in B6D2F1 (BDF1) mice
Settings: T/C endpoint: mean survival time, higher T/C = longer survival

SMILES: O=C1c2ccccc2C(O)N1c1ccccc1 (configuration not stated)
- survivor count (dose: 200.0 mg/kg/injection, schedule: Q01DX001 (ip), vehicle: saline): 4 of 4

SMILES: COc1nc(=O)n(C2CCCO2)cc1I (configuration not stated)
- survivor count (dose: 400.0 mg/kg/injection, schedule: Q01DX001 (ip), vehicle: saline): 1 of 4

SMILES: Cn1c(CC(O)(C(F)(F)F)C(F)(F)F)c(C(O)(C(F)(F)F)C(F)(F)F)c2ccccc21
- survivor count (dose: 20.0 mg/kg/injection, schedule: Q01DX009 (ip), vehicle: saline with Tween-80): 1 of 6
- survivor count (dose: 100.0 mg/kg/injection, schedule: Q04DX003 (ip), vehicle: saline with Tween-80): 0 of 6
- survivor count (dose: 200.0 mg/kg/injection, schedule: Q04DX003 (ip), vehicle: saline with Tween-80): 0 of 6
- survivor count (dose: 400.0 mg/kg/injection, schedule: Q04DX003 (ip), vehicle: saline with Tween-80): 0 of 6

SMILES: CS(=O)(=O)OCCN(Cc1ccc(OS(C)(=O)=O)cc1)S(C)(=O)=O
- survivor count (dose: 400.0 mg/kg/injection, schedule: Q01DX009 (ip), vehicle: saline with Tween-80): 5 of 6

SMILES: NC(=O)c1nnc(-c2ccccn2)[nH]c1=O
- survivor count (dose: 200.0 mg/kg/injection, schedule: Q01DX001 (ip), vehicle: Klucel (hydroxypropylcellulose) (HPC)): 3 of 3
- survivor count (dose: 400.0 mg/kg/injection, schedule: Q01DX001 (ip), vehicle: Klucel (hydroxypropylcellulose) (HPC)): 0 of 3

SMILES: CCc1c(CC(=O)O)c2cc(C)ccc2n1Cc1ccc(Cl)cc1
- survivor count (dose: 81.0 mg/kg/injection, schedule: Q01DX Z (ip), vehicle: carboxymethylcellulose (CMC)): 5 of 6

SMILES: CCN(CC)C(=O)c1ccncc1
- survivor count (dose: 200.0 mg/kg/injection, schedule: Q01DX009 (ip), vehicle: saline): 6 of 6

SMILES: N=C(N)CSS(=O)(=O)O
- survivor count (dose: 50.0 mg/kg/injection, schedule: Q01DX009 (ip), vehicle: Klucel (hydroxypropylcellulose) (HPC)): 1 of 3
- survivor count (dose: 100.0 mg/kg/injection, schedule: Q04DX002 (ip), vehicle: Klucel (hydroxypropylcellulose) (HPC)): 0 of 3
- survivor count (dose: 200.0 mg/kg/injection, schedule: Q04DX002 (ip), vehicle: Klucel (hydroxypropylcellulose) (HPC)): 0 of 3
- survivor count (dose: 400.0 mg/kg/injection, schedule: Q04DX002 (ip), vehicle: Klucel (hydroxypropylcellulose) (HPC)): 0 of 3

SMILES: C[n+]1ccccc1/C=C/c1cccc(O)c1
- survivor count (dose: 37.5 mg/kg/injection, schedule: Q01DX001 (ip), vehicle: other): 3 of 6

SMILES: CCOC(=O)c1ccc(OC(=O)Nc2ccc(OC)cc2OC)cc1
- survivor count (dose: 200.0 mg/kg/injection, schedule: Q01DX009 (ip), vehicle: Klucel (hydroxypropylcellulose) (HPC)): 6 of 6
- survivor count (dose: 400.0 mg/kg/injection, schedule: Q01DX009 (ip), vehicle: Klucel (hydroxypropylcellulose) (HPC)): 2 of 6

SMILES: COc1cc2c(cc1OC)C(=O)N(C)CC2
- survivor count (dose: 400.0 mg/kg/injection, schedule: Q01DX009 (ip), vehicle: water): 1 of 6

SMILES: CNC1=C(N2CC2)C(=O)C(NC)=C(N2CC2)C1=O
- T/C (dose: 0.09 mg/kg/injection, schedule: Q01DX009 (ip), vehicle: Klucel (hydroxypropylcellulose) (HPC)): 126 and 137 % of control
- T/C (dose: 0.09 mg/kg/injection, schedule: Q04DX003 (ip), vehicle: Klucel (hydroxypropylcellulose) (HPC)): 127 % of control
- T/C (dose: 0.19 mg/kg/injection, schedule: Q01DX009 (ip), vehicle: Klucel (hydroxypropylcellulose) (HPC)): 148 % of control
- T/C (dose: 0.19 mg/kg/injection, schedule: Q04DX003 (ip), vehicle: Klucel (hydroxypropylcellulose) (HPC)): 125 and 134 % of control
- T/C (dose: 0.39 mg/kg/injection, schedule: Q04DX003 (ip), vehicle: Klucel (hydroxypropylcellulose) (HPC)): 128 % of control
- T/C (dose: 0.4 mg/kg/injection, schedule: Q01DX009 (ip), vehicle: saline): 131 % of control
- T/C (dose: 0.4 mg/kg/injection, schedule: Q04DX003 (ip), vehicle: saline): 129 % of control
- T/C (dose: 0.75 mg/kg/injection, schedule: Q01DX001 (ip), vehicle: saline): 134 % of control [5 of 6 alive]
- survivor count (dose: 0.78 mg/kg/injection, schedule: Q01DX009 (ip), vehicle: Klucel (hydroxypropylcellulose) (HPC)): 3 of 6 and 6 of 6
- survivor count (dose: 1.5 mg/kg/injection, schedule: Q01DX001 (ip), vehicle: saline): 4 of 6
- survivor count (dose: 1.56 mg/kg/injection, schedule: Q04DX003 (ip), vehicle: Klucel (hydroxypropylcellulose) (HPC)): 1 of 6 and 3 of 6
- survivor count (dose: 3.0 mg/kg/injection, schedule: Q01DX001 (ip), vehicle: saline): 3 of 6
- survivor count (dose: 3.12 mg/kg/injection, schedule: Q04DX003 (ip), vehicle: Klucel (hydroxypropylcellulose) (HPC)): 2 of 6
- survivor count (dose: 6.25 mg/kg/injection, schedule: Q04DX003 (ip), vehicle: Klucel (hydroxypropylcellulose) (HPC)): 0 of 6
- survivor count (dose: 12.5 mg/kg/injection, schedule: Q04DX003 (ip), vehicle: Klucel (hydroxypropylcellulose) (HPC)): 5 of 6
- survivor count (dose: 25.0 mg/kg/injection, schedule: Q04DX003 (ip), vehicle: Klucel (hydroxypropylcellulose) (HPC)): 0 of 6
- survivor count (dose: 50.0 mg/kg/injection, schedule: Q04DX003 (ip), vehicle: Klucel (hydroxypropylcellulose) (HPC)): 0 of 6
- survivor count (dose: 100.0 mg/kg/injection, schedule: Q04DX003 (ip), vehicle: Klucel (hydroxypropylcellulose) (HPC)): 0 of 6
